Data as given in PubChem BioAssay AID1671195 (Yale University, 2021)
The whole screen tested about 22,000 reagents; this is a random part of them. Of all reagents, about 1,510 (6.9%) are marked active. 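Active includes knockdowns raising or lowering LDL uptake; positive z-scores mean more uptake, negative mean less.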 No sequences are given here.

Screen: 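Regulators of LDL receptor activity judged by labelled LDL uptake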 (primary screen)
System: human Huh7 hepatoma cells
Reagents: siRNA pool against human genes, 18 nM
Duration: about 2 to 2.5 days of knockdown, then 8 h LDL uptake
Treatment: DiI-labelled LDL at 30 µg/ml for 8 h, in lipoprotein-deficient serum medium
Measured: 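Fluorescent LDL signal imaged in cells, scaled to the plate median, robust z-score for each replicate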
Scale: robust z-score: higher = more LDL uptake after knockdown
Call rule: 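a gene counts as active if at least two replicate z-scores exceed ±2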

gene symbol | robust z-score, replicate 1 | robust z-score, replicate 2 | robust z-score, replicate 3 | Call
LOC391014 (retired record) | 0.892 | 0.751 | 0.634 | inactive
PLAA | -0.502 | -1.33 | -0.499 | inactive
KLF7 | -0.302 | -0.198 | 0.0619 | inactive
HECW1 | -0.409 | -0.597 | 0.0449 | inactive
FAM199X | -0.595 | 0.345 | 0.423 | inactive
AGMO | 0.299 | 0.402 | 0.93 | inactive
ATP6V0D2 | 0.208 | 0.631 | 0.554 | inactive
ETS1 | 0.405 | -0.345 | 2 | inactive
PTGFRN | 1.33 | 0.935 | 1.28 | inactive
LOC441802 (retired record) | -0.96 | -0.902 | -0.774 | inactive
NAB2 | 3.21 | 3.33 | 3.46 | active
ALDH2 | -0.707 | -0.534 | -0.437 | inactive
ARPC1A | 2.37 | 1.77 | 1.58 | inactive
KRTAP19-6 | 1.12 | 1.07 | 1.38 | inactive
LOC400552 (retired record) | -1.37 | -1.09 | -0.659 | inactive
GOT1 | 1.43 | 1.83 | 1.25 | inactive
MYH15 | -0.932 | -0.771 | -1.57 | inactive
LOC390426 (retired record) | -1.56 | -1.13 | -1.35 | inactive
LOC399961 (retired record) | 1.61 | 2.18 | 2.2 | active
CSRP3 | -0.578 | -0.242 | 0.783 | inactive
CETP | -0.522 | -0.0236 | 0.3 | inactive
ABHD17C | 0.027 | -0.274 | 0.663 | inactive
LOC401169 (retired record) | 0.589 | 0.149 | 0.524 | inactive
PNISR | 0.917 | -0.198 | -1.01 | inactive
LOC440100 (retired record) | 0.286 | 0.321 | 0.423 | inactive
FBXO6 | 1.8 | 0.985 | 1.34 | inactive
CHRM5 | -0.371 | 0.169 | -0.199 | inactive
DGKI | 0.0906 | -0.71 | -0.18 | inactive
OSBPL9 | -0.624 | 0.212 | -0.262 | inactive
CRCP | 0.628 | 0.794 | -0.0035 | inactive
C11orf86 | 0.527 | 0.414 | 0.662 | inactive
DYNC2I2 | 0.807 | 1.82 | 2.19 | inactive
FGD3 | 0.768 | 2.21 | 1.24 | inactive
LINC01106 | 1.63 | 1.09 | 1.84 | inactive
SESN2 | 0.624 | 0.547 | 0.434 | inactive
GPD1 | -2.38 | -1.98 | -2.41 | active

Records listed so far marked active:
gene symbol | robust z-score, replicate 1 | robust z-score, replicate 2 | robust z-score, replicate 3 | Call
NAB2 | 3.21 | 3.33 | 3.46 | active
LOC399961 (retired record) | 1.61 | 2.18 | 2.2 | active
GPD1 | -2.38 | -1.98 | -2.41 | active

The listing continues:
gene symbol | robust z-score, replicate 1 | robust z-score, replicate 2 | robust z-score, replicate 3 | Call
PIK3C2A | -0.749 | 0.104 | -0.79 | inactive
DPPA5P4 | 0.712 | 0.649 | 1.29 | inactive
IL37 | -0.329 | 2.44 | 1.54 | inactive
NUP37 | 0.668 | -0.042 | 1.22 | inactive
GEMIN2 | -0.671 | 0.108 | 0.524 | inactive
FAIM2 | 0.244 | 2.4 | -0.291 | inactive
SH2D4A | -0.829 | -0.688 | -0.835 | inactive
ZNF589 | -0.748 | 0.651 | 0.58 | inactive
KRT12 | 0.0564 | -0.134 | 1.04 | inactive
ZNF362 | 0.78 | -0.039 | -0.314 | inactive
LOC388019 (retired record) | 0.0917 | 0.0258 | -0.795 | inactive
MVB12B | 0.175 | -0.0921 | 0.0315 | inactive
ATL3 | 2.29 | 3.84 | 2.04 | active
LOC389252 (retired record) | -0.157 | -0.383 | -0.0233 | inactive
CTBP1-DT | -1.02 | -0.127 | -0.052 | inactive
CYBA | 0.537 | 0.0336 | 0.0953 | inactive
LOC440582 (retired record) | 1.98 | 1.18 | 1.29 | inactive
RREB1 | -1.1 | -1.52 | -0.84 | inactive
FZD6 | -1.11 | -1.31 | -0.0962 | inactive
EPHB1 | 0.425 | 0.472 | 0.269 | inactive
TENT4B | -0.956 | -1.21 | -1 | inactive
OR2A2 | 0.416 | 0.121 | 0.0139 | inactive
C5orf34 | 0.0183 | 0.0413 | 0.429 | inactive
HSP90AA2P | -0.395 | -0.551 | -0.658 | inactive
LOC442600 (retired record) | -0.0311 | 0.226 | 0.166 | inactive
PRKXP1 | -0.469 | -0.826 | -0.272 | inactive
NIBAN3 | 0.625 | 0.105 | 0.353 | inactive
PTPRJ | -0.0937 | 0.237 | 0.497 | inactive
TADA2A | 0.87 | 0.688 | 0.749 | inactive
PPIL1 | 0.412 | -0.109 | 0.301 | inactive
PTH2R | -0.21 | -0.29 | -0.682 | inactive
SPATA6 | 1.36 | 1.44 | 1.04 | inactive
